# Data: PubChem BioAssay AID493014 (National Center for Advancing Translational Sciences (NCATS), 2011)
# About 170 (0.05%) of roughly 340,000 compounds were called active. The inconclusive results got no clear call from the source; some entries with a clear call stand among them for comparison. Calls come from the whole dose curve; as a rule, active = well fitted inhibition curve with a large enough effect in the signal ratio, with a control signal flat (not every such curve was filed as active); inconclusive = small, poorly fitted or top-dose-only effect, or effect the other way, or a change in a side signal; inactive = flat fitted curve, though single readings scatter; the % refers to the signal ratio. Where the call is inconclusive, the potency comes from a doubtful curve fit.
# Assay: qHTS Assay to Find Inhibitors of Chronic Active B-Cell Receptor Signaling;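 for activity change, negative = inhibition: plate controls were basal doxycycline-induced cells for no effect and cells given 10 µM MG132 for full effect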
# Details: ABC-DLBCL IkBa-CBG/CBR reporter, luminescence ratio (green luciferase fused to IkBa over red control in TMD8 lymphoma cells), 4 h; activity change, negative = inhibition: at 46.1 µM (top of the series)
# Outline: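 Cell line TMD8 (human ABC DLBCL), stably expressing tet-inducible CBG68-IkBa fusion and CBR; IMDM/0.5% FBS; cpd up to 46 uM; dox induction, 4 h, 37C/5% CO2; dual luminescence; green/red ratio; MG132 control.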
# Potency is the fitted concentration of half-maximal effect.
SMILES,"activity change, negative = inhibition",Potency
CCOC(=O)c1ccc(NC(=S)N2CCC(O)CC2)cc1,inactive: -2.25%,
O=C(CCN1C(=O)/C(=C/c2ccccc2)SC1=S)NC1CCS(=O)(=O)C1 (stereo not given),inconclusive: 1.22%,
O=C(Cc1ccccc1)NC(=S)Nc1cc(C(F)(F)F)ccc1Cl,inactive: 14.4%,
CCOC(=O)c1sc(NC(=O)CSc2nc(C)cc(C(F)(F)F)n2)c(C#N)c1C,inconclusive: -1.02%,
O=C(NC1CCC1)C1CCC(=O)N(Cc2cccc(F)c2)C1 (stereo not given),inactive: 0.0646%,
Cc1cc(-c2ccc(C)c(S(=O)(=O)NCc3cccc(Br)c3)c2)on1,inconclusive: 7.74%,
COc1ccc(N(C)S(=O)(=O)c2cccc(C(=O)Nc3nc4ccccc4[nH]3)c2)cc1,inconclusive: -4.19%,
N#Cc1cn(CC(=O)N2CCCC2)c2ccccc12,inconclusive: -5.17%,
CC(C)CCNc1nc2c(c(=O)n(Cc3cccc(F)c3)c(=O)n2C)n1C,inconclusive: 9.65%,
O=C(/C=C/c1ccccc1)c1ccccc1,,"inconclusive: 32.6 µM [falling, partial curve, poor fit]"
CSCCC(NS(=O)(=O)c1ccccc1F)C(=O)NCc1ccncc1 (stereo not given),inactive: 2.24%,
O=C(O)c1c(C(=O)O)c(-c2ccc(Cl)c(Cl)c2)n2c1CSC2,inconclusive: -22.1%,
CCCCOc1ccc(C(=O)Nc2ccc(SC(F)F)cc2)cc1OC,inactive: -0.95%,
O=C(O)c1cc(NN=C2CCN(Cc3ccccc3)CC2)ccc1Cl,inconclusive: -13.7%,
Cc1ccc(-c2csc3nc4c5ccccc5c(NCCCN(C)C)nn4c(=O)c23)cc1,inactive: -7.36%,
COc1ccc(-c2csc(Nc3ncccn3)n2)cc1C,inconclusive: 11.5%,
O=C(CCl)Nc1ccc(S(=O)(=O)NC2=NCCCCC2)cc1,,"inconclusive: 16.4 µM [falling, partial curve]"
CC(C)Nc1nc(Cl)nc(NNC(=O)C(C)Oc2ccccc2)n1 (stereo not given),inconclusive: -1.5%,
Cc1ccc(NC(=O)Cc2cccs2)cc1Cl,inconclusive: -1.51%,
Cc1c(C#N)c2ccccc2n1CC(=O)N1CCCc2ccccc21,inconclusive: -3.45%,
CCn1c2ccccc2c2cc(NC(=O)COc3ccccc3OC)ccc21,inactive: -8.75%,
Cc1cc(C)[n+](C)n1CC(O)Cn1c2ccccc2c2ccccc21 (stereo not given),inactive: -0.355%,

SMILES,"activity change, negative = inhibition",Potency
Cc1cccc(-n2nc(C(=O)c3ccco3)cc(-c3nc4ccccc4[nH]3)c2=N)c1,inconclusive: 0.0062%,
Cc1ccc(N2CN(Cc3ccco3)CNC2=S)cc1,inactive: 2.05%,
Cc1ccc(Cl)cc1NC(=O)COC(=O)CN1C(=O)C2CCCCC2C1=O (stereo not given),inconclusive: 5.69%,
O=C(NCc1cccnc1)C(=O)NCC(c1ccco1)N1CCN(c2ccc(F)cc2)CC1 (stereo not given),inactive: -11.5%,
CCOC(=O)/C=C/c1cnn(-c2ccccc2)c1,inconclusive: -6.06%,
CCOc1nnc(C)c2c(C)n(-c3ccc(Cl)cc3)nc12,inconclusive: -0.691%,
CCn1cc(C(=O)NCCC(=O)NCCO)c(=O)c2cc3c(cc21)OCO3,inconclusive: 0.21%,
COC(CNC(=O)c1ccc2c(c1)ncn2C1CCCCCC1)OC,inactive: -2.64%,
CC1(C)Cc2c(c(-c3ccco3)nc3sc4c(NCCO)ncnc4c23)CO1,inactive: 20.6%,
CC(C)(C)c1nnc(NC(=O)C2CCN(c3ncccn3)CC2)s1,inconclusive: -4.01%,
CC1CCN(C(=O)c2ccc([N+](=O)[O-])o2)CC1,inconclusive: 1.69%,
CC1(C)Cc2c(sc(NC(=O)COc3ccc(Cl)cc3)c2C#N)C(C)(C)N1,inconclusive: -17.6%,
Cn1cccc1C(NC(=O)c1ccccc1)C(Cl)(Cl)Cl (stereo not given),inconclusive: 4.81%,
CCN(Cc1ccccc1)Cc1ccc(OCc2ccccc2)c(OC)c1,inconclusive: 6.68%,
COc1ccc(C(=O)NC(=S)NNC(=O)c2ccc(NC(=O)C(C)C)cc2)cc1,inconclusive: 3.28%,
Clc1ccc(CSc2nnnn2-c2ccc3c(c2)OCO3)c(Cl)c1,,"inconclusive: 8.2 µM [rising, partial curve, poor fit]"
Cn1c(-c2ccsc2)c(-c2cccs2)c2cc(-c3ccc4cc[nH]c4c3)ccc21,inconclusive: -3.44%,
O=C(Cn1c(NCCO)nc2ccccc21)c1ccc([N+](=O)[O-])cc1,inconclusive: -1.25%,
COc1ccc(-c2cn3ccc4ccccc4c3n2)cc1,inconclusive: 1.1%,
CC(C)CN1CCN(C2CCN(C(C)C)CC2)C(CCO)C1 (stereo not given),,"inconclusive: 7.94 µM [falling, partial curve, poor fit]"
COc1ccc(OC)c(C(=O)COC(=O)c2ccc(C)o2)c1,inactive: -4.55%,
CC1CCN(C(=O)c2[nH]cnc2C(=O)NCc2ccccc2)CC1,inactive: -0.308%,

SMILES,"activity change, negative = inhibition",Potency
C/C(=N\NC(=O)c1ccc(O)cc1)c1cc2ccccc2o1,,"inconclusive: 10 µM [falling, partial curve]"
CC(OC(=O)c1nc(Cl)ccc1Cl)C(=O)Nc1ccc2c(c1)OCCO2 (stereo not given),inactive: -13.8%,
COc1ccc(OC)c2[nH]c(=O)c(CCNC(=O)c3cccs3)cc12,inconclusive: 3.84%,
Cc1ccccc1CC(=O)c1ccc(O)c(C)c1O,,"inconclusive: 5.62 µM [falling, full curve, poor fit]"
Cc1c(C(=O)N2CCOCC2)[nH]c2ccc(OCc3ccccc3)cc12,inconclusive: -19%,
O=C(Nc1c2c(nn1-c1ccc(Cl)cc1)CS(=O)(=O)C2)c1ccc2c(c1)OCO2,inconclusive: -1.66%,
Nc1nc(-c2cc(Cl)cc(Cl)c2OC(F)F)cs1,inconclusive: 17.8%,
CCCC(=O)N1CCN(c2nc3ccc(Br)cc3s2)CC1,inconclusive: 10.4%,
O=C(Nc1ccncc1)c1sc2ccccc2c1Cl,,"inconclusive: 17.8 µM [falling, single point]"
CC1CCN(CCCNC(=O)c2coc3nc4ccccc4nc23)CC1,,"inconclusive: 20.6 µM [falling, single point]"
COc1ccccc1N1CCN(CC(O)c2c(C)[nH]c3ccccc23)CC1 (stereo not given),inconclusive: -10.7%,
Cc1oc(-c2cccc(Cl)c2)nc1CN1CCCC(C(=O)NC(C)c2ccc3c(c2)OCCO3)C1 (stereo not given),,"inconclusive: 1.84 µM [rising, full curve, poor fit]"
O=C(NCC1CCCO1)c1ccc2c(c1)C(=O)N(c1cccc([N+](=O)[O-])c1)C2=O (stereo not given),inconclusive: -6.6%,
O=C(Nc1ncccn1)c1cccc(F)c1,inconclusive: -1.97%,
O=C(/C=C/c1ccco1)Nc1nc(-c2ccccc2)cs1,inactive: -1.58%,
CCC(=O)OCC(=O)C1(OC(=O)CC)[C@H](C)C[C@H]2[C@H]3[C@H]([C@@H](O)C[C@@]21C)[C@@]1(C)C=CC(=O)C=C1C[C@H]3Cl (stereo not given in full),inconclusive: -10.7%,
O=C(COC(=O)Cc1cccc(C(F)(F)F)c1)Nc1ccc2[nH]c(=O)[nH]c2c1,inactive: 5.01%,
COc1ccc(C=NNc2ccc([N+](=O)[O-])cc2S(=O)(=O)Nc2ccccc2C(=O)O)cc1OC,inconclusive: -0.446%,
CCOc1cc(/C=C(\C#N)C(=O)Nc2cccc(C(=O)O)c2)ccc1OCc1ccc(Br)cc1,inconclusive: 20%,
CN(C)CCCNc1ncnc2scc(-c3ccccc3)c12,inconclusive: -39.2%,
CCOC(CCNC(=O)c1cn(-c2cccc(C)n2)cn1)OCC,,"inconclusive: 12.6 µM [falling, partial curve]"
COc1ccccc1NC(=O)NC(=O)c1ccccc1,inconclusive: -19.4%,

# Compounds shown so far containing a COOH group:
SMILES,"activity change, negative = inhibition",Potency
O=C(O)c1c(C(=O)O)c(-c2ccc(Cl)c(Cl)c2)n2c1CSC2,inconclusive: -22.1%,
O=C(O)c1cc(NN=C2CCN(Cc3ccccc3)CC2)ccc1Cl,inconclusive: -13.7%,
COc1ccc(C=NNc2ccc([N+](=O)[O-])cc2S(=O)(=O)Nc2ccccc2C(=O)O)cc1OC,inconclusive: -0.446%,
CCOc1cc(/C=C(\C#N)C(=O)Nc2cccc(C(=O)O)c2)ccc1OCc1ccc(Br)cc1,inconclusive: 20%,

# Rewritten bar-delimited: two of the compounds above.
SMILES | activity change, negative = inhibition | Potency
CC1CCN(CCCNC(=O)c2coc3nc4ccccc4nc23)CC1 |  | inconclusive: 20.6 µM [falling, single point]
COc1ccccc1N1CCN(CC(O)c2c(C)[nH]c3ccccc23)CC1 (stereo not given) | inconclusive: -10.7% | 

# Continuation:

SMILES,"activity change, negative = inhibition",Potency
COc1ccc(NC(=O)c2cc3c(=O)n(C)c4ccccc4c3n2C)cc1OC,inactive: -7.21%,
CN1CCC(=C(c2ccc(Cl)cc2)c2ccccn2)CC1,inconclusive: -5.61%,
COc1cccc(/C=N/Nc2ccnc(=O)[nH]2)c1O,,"inconclusive: 20 µM [falling, single point]"
O=C(CSC(=S)N1CCCC1)N1CCN(S(=O)(=O)c2ccccc2F)CC1,inconclusive: 5.02%,
CCOC(=O)N1CCN(C(=O)c2cc(COc3ccc4ncccc4c3)on2)CC1,inconclusive: -9.05%,
Cc1ccc(-c2cn(-c3ccc(SC(F)F)cc3)c3[n+]2CCC3)cc1,inactive: -3.56%,
O=C(CSC1=NS(=O)(=O)c2ccccc2N1)Nc1ccc(F)cc1,inconclusive: -22.4%,
CC12CCC(=O)N1C(C(=O)Nc1nc3ccc(Cl)cc3s1)CS2 (stereo not given),inconclusive: 7.33%,
Cc1cc(NC(=O)CCCC(=O)N(CC(=O)NCCc2ccccc2)Cc2ccc(F)cc2)no1,inconclusive: 6.44%,
CSc1cc(-c2ccc(Cl)cc2)[nH]c(=O)c1C#N,inconclusive: 9.89%,
CC(=O)Cc1nsc(NC(=O)c2ccccc2)n1,inactive: 0.698%,
C/C(=N\Nc1ccc(S(=O)(=O)N2CCCCC2)cn1)c1cccc(Br)c1,inconclusive: 1.34%,
CNc1nc(-c2ccc3c(c2)CCN3C(=O)c2ccc(F)cc2)cs1,inconclusive: 2.09%,
Cc1occc1C(=O)N/N=C/C(Br)=C/c1ccccc1,,"inconclusive: 31.6 µM [cytotoxic, single point]"
COc1ccc(CC(=O)N2CC(C)CC(C)C2)cc1OC (stereo not given),inconclusive: 11.6%,
CCn1cc(C(=O)O)c(=O)c2cc(F)c(N/N=C/c3ccccc3)cc21,,"inconclusive: 2.06 µM [rising, full curve, poor fit]"
Cc1ccc(NC(=O)C(c2ccccc2)N2CCN(CC(=O)N3CCOCC3)CC2)cc1Cl (stereo not given),inconclusive: 12.9%,
CN(CC(=O)NCc1ccco1)C(=O)C1CC(=O)N(c2ccc3c(c2)OCCO3)C1 (stereo not given),inconclusive: 2.6%,
O=C(CNCC1CCCCC1)Nc1ccc(OC(F)(F)F)cc1,inconclusive: 1.36%,
